PubChem BioAssay AID652243 – Drosophila RNAi Screening Center | 2013
The screen tested about 24,000 reagents; this is an unselected part of those that have a named target and a result. Of all reagents, 246 (1%) are marked active. 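Plates not normalised; calls are printed but the firefly/Renilla ratio behind them is not deposited; fold cut for lowering reported inconsistently.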 The raw values are shown without normalisation. Reagents against one gene are numbered here. Not given: the amount of reagent.

Aim: 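Fly genes required for human androgen receptor driven transcription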 (primary screen)
System: Drosophila S2R+ cells
Reagent: long dsRNA against Drosophila genes
Time to read-out: 72 h (48 h, then 24 h hormone)
Conditions: synthetic androgen R1881 at 10 nM for 24 h
Measurement: 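Firefly light from an androgen-responsive reporter and Renilla control light per well, raw and unnormalised, for each of two replicates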
Reading the numbers: firefly reporter light: higher = more light from androgen-responsive reporter; Renilla control light: higher = more constitutive control signal (cell number, transfection)
Hit rule: 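Across duplicate plates, a knock-down whose log firefly/Renilla ratio shifted a set fold down or up from the GFP/LacZ control mean was a hit; the downward cut appears as both 1.5 and 3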
Calls: active = hit: reporter lowered or raised; inactive = no hit

Indy (I'm not dead yet) — firefly reporter light, replicate 1 = 59341; firefly reporter light, replicate 2 = 76239; Renilla control light, replicate 1 = 6.81e5; Renilla control light, replicate 2 = 6.34e5; outcome = inactive
Ndc1 (Nuclear division cycle 1) — firefly reporter light, replicate 1 = 93843; firefly reporter light, replicate 2 = 69690; Renilla control light, replicate 1 = 6.82e5; Renilla control light, replicate 2 = 9.56e5; outcome = inactive
HP4 (Heterochromatin protein 4) — firefly reporter light, replicate 1 = 5.90e5; firefly reporter light, replicate 2 = 5.36e5; Renilla control light, replicate 1 = 9.69e5; Renilla control light, replicate 2 = 1.86e6; outcome = inactive
CG14180 (retired record) #1 — firefly reporter light, replicate 1 = 37543; firefly reporter light, replicate 2 = 32305; Renilla control light, replicate 1 = 6.06e5; Renilla control light, replicate 2 = 5.23e5; outcome = inactive
CG14180 (retired record) #2 — firefly reporter light, replicate 1 = 1.04e6; firefly reporter light, replicate 2 = 9.64e5; Renilla control light, replicate 1 = 6.37e5; Renilla control light, replicate 2 = 7.10e5; outcome = inactive
Or83c (Odorant receptor 83c) — firefly reporter light, replicate 1 = 89441; firefly reporter light, replicate 2 = 70908; Renilla control light, replicate 1 = 1.93e6; Renilla control light, replicate 2 = 1.43e6; outcome = inactive
mrva (minerva) #1 — firefly reporter light, replicate 1 = 3.72e5; firefly reporter light, replicate 2 = 4.88e5; Renilla control light, replicate 1 = 2.89e6; Renilla control light, replicate 2 = 3.00e6; outcome = inactive
mrva (minerva) #2 — firefly reporter light, replicate 1 = 8.52e5; firefly reporter light, replicate 2 = 8.24e5; Renilla control light, replicate 1 = 2.11e6; Renilla control light, replicate 2 = 2.24e6; outcome = inactive
mrva (minerva) #3 — firefly reporter light, replicate 1 = 6.54e5; firefly reporter light, replicate 2 = 7.18e5; Renilla control light, replicate 1 = 9.23e5; Renilla control light, replicate 2 = 9.26e5; outcome = inactive
Atg17 (Autophagy-related 17) — firefly reporter light, replicate 1 = 9996; firefly reporter light, replicate 2 = 22756; Renilla control light, replicate 1 = 3.67e5; Renilla control light, replicate 2 = 2.97e5; outcome = inactive
Inx3 (Innexin 3) #1 — firefly reporter light, replicate 1 = 74457; firefly reporter light, replicate 2 = 72508; Renilla control light, replicate 1 = 1.12e6; Renilla control light, replicate 2 = 7.43e5; outcome = inactive
Inx3 (Innexin 3) #2 — firefly reporter light, replicate 1 = 4.91e5; firefly reporter light, replicate 2 = 3.95e5; Renilla control light, replicate 1 = 5.80e5; Renilla control light, replicate 2 = 5.55e5; outcome = inactive

Look-ups from the list:
Indy (I'm not dead yet), outcome: inactive
Under “firefly reporter light, replicate 2”, Inx3 (Innexin 3) #2 shows 3.95e5
